In patent publication US20250129334A1, “LINEAGE SPECIFICATION DURING STEM CELL TRANSITION” (Amniotics AB, priority 2021, published 2025):
Entries after “also recorded” stand apart in the source; their conditions may differ. At least one compound was matched to its structure with a doubt left.

How the values were obtained:
fetal liver = test: In vivo compound injection of pregnant mice, fetal liver analysis at E14.5
Description: For fetal liver analysis, pregnant female C57Bl/6xB6.SJL mice were injected intraperitoneally at E9.5 with UK5099 (4 mg/kg) or DCA (200 mg/kg) or PBS (control). Embryos were harvested at E14.5 and individually weighed and processed. Fetal livers were dissected and homogenised in 800 μL ice cold PBS supplemented with 2% fetal bovine serum (FBS) and FL cells were washed in PBS with 2%/FBS. For the differentiated lineage panel, cells were stained with B220 and CD19 (B-cell markers)-PE, CD3e-APC, Ter119-PeCy7 and CD71-FITC and analyzed on a BD FACSARIA III. For the HSC panel, samples were first treated with ammonium chloride solution (STEMCELL Technologies, France) to lyse red blood cells, washed twice in ice cold PBS with 2% FBS, stained with CD3e, B220, Ter119, Gr1 (Lineage)-PeCy5, c-Kit-Efluor780, Sca1-BV421, CD48-FITC, CD150-BV605 and 7-AAD (for dead cell exclusion) and analyzed on a BD FACSARIA III. […] For plating of CFU assays, 100 LT-HSCs were sorted (gating strategy shown in FIG. 11, e) and resuspended in 3.0 mL Methocult M3434 (STEMCELL Technologies, France). Each mixture was divided onto 2 wells of a non-tissue culture treated 6-well plate. Following a 14-day incubation in a humidified incubator at 37° C., 5% CO2, 20% O2, colonies were morphologically distinguished and scored. For AGM analysis, pregnant female C57BV6.SJL mice were injected intraperitoneally at E8.5 with DCA (200 mg/kg) or PBS (control). Embryos were harvested at E10.5 and their AGM regions were individually processed as described previously (Fang, J. S., Gritz, E. C., Marcelo, K. L. & Hirschi, K. K. Isolation of Murine Embryonic Hemogenic Endothelial Cells. JoVE (Journal of Visualized Experiments) e54150-e54150 (2016) doi:10.3791/54150). Briefly, AGM regions were dissected and digested with Collagenase II (Life Technologies) in PBS supplemented with 10% fetal bovine serum (FBS) and cells in single cell suspension were washed in PBS with 10% FBS. Cells were stained with anti-cKit and anti-CD45 antibodies and analyzed on a BD LSRFortessa. Experiments and animal care were performed in accordance with the Lund University Animal Ethical Committee.

HE cells = test: Cholesterol content by filipin III staining; type: cell-based, human
iPSC-CD34+ = test: NK cell cytotoxic degranulation (CD107) with or without K562 co-culture; type: cell-based, human
Excerpt: NK cell anti-tumour activity can occur via cytotoxic degranulation. CD107 is a marker that is present in the cytotoxic vesicles of NK cells, and so is not expressed on the cell surface of inactivated NK cells. However, upon NK cell activation and degranulation, the CD107 target becomes detectable on the cell surface. Therefore, the level of CD107 detected on NK cells correlates with cytotoxic degranulation. In this assay, several exemplary metabolic regulators were used to assess cytotoxic degranulation in a co-culture assay with K562 cells (an exemplary cancer cell model). As a negative control, iPSC-CD34^+ untreated with a metabolic regulator were used, in which a basal level of 3.27% of degranulated NK cells (CD3^−CD56^+CD16^+CD107^+ cells) were observed (FIG. 16A, top panel).

[1] = injection at E9.5, analysis E14.5
[2] = injection at E9.5, analysis E14.5, DCA 200 mg/kg i.p.
[3] = injection at E9.5, analysis E14.5, vs control and UK5099

Structure (SMILES): O=C(O)C(Cl)Cl [DCA, dichloroacetate]
- frequency of phenotypic long-term HSCs (LT-HSCs) (fetal liver; LSK CD48-CD150+, UK5099 4 mg/kg, DCA 200 mg/kg): not significantly affected
- stage 0, 4 and 5 erythroid populations in the FL (fetal liver; [1]): significant decreases
- stages 1, 2 and 3 erythroid populations in the FL (fetal liver; [1]): no significant differences
- HPC-1 in fetal liver (fetal liver; [2]): significantly increased
- HPC-2 in fetal liver (fetal liver; [2]): significantly increased
- B cell levels in fetal liver (fetal liver; [3]): increased
- T cell levels in fetal liver (fetal liver; [3]): increased
- cholesterol content by imaging (HE cells; day 2, DCA 3 mM, confocal microscopy): increase
- cholesterol content by flow cytometry (HE cells; day 3 of DCA treatment): increase
- dose dependence of cholesterol content (HE cells; flow cytometry, day 3): dose-dependent effect
- basal degranulation (iPSC-CD34+; absence of K562, vs ctrl): higher than ctrl
- level of degranulated NK cells when exposed to K562 cells (iPSC-CD34+; co-culture with K562): further increased; also recorded: increased degranulation
